{"source": "paper PMC3996760", "about": "(Brain research, 2014)", "origin": "cited, not measured here", "conditions": "2 mg/kg i.p., 20 min; ref Savić et al., unpublished data; cited from earlier work"}
{"smiles": "CN1C(=O)CN=C(c2ccccc2)c2cc(Cl)ccc21", "note": "[diazepam, reference compound]", "values": [{"measurement": "brain estimated free concentration", "result": 58.46, "unit": "nmol/kg"}]}
